## Primary screen of a compound library

Sequences of proteins named here, by UniProt entry; tags and fusion partners are left off. Residues count along the entry.
UniProt P9WNZ1, whole entry: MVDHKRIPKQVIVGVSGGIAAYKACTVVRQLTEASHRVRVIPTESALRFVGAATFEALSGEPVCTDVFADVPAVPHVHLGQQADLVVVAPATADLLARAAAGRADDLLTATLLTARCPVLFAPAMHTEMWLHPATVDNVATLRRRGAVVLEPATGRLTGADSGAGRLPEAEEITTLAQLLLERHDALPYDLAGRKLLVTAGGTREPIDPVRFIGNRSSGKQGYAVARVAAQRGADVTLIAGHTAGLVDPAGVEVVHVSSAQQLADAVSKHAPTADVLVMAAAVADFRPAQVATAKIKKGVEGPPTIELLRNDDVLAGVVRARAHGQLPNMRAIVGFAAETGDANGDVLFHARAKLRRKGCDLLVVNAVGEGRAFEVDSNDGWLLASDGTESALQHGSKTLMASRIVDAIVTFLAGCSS
UniProt Q4DA54, 1-478: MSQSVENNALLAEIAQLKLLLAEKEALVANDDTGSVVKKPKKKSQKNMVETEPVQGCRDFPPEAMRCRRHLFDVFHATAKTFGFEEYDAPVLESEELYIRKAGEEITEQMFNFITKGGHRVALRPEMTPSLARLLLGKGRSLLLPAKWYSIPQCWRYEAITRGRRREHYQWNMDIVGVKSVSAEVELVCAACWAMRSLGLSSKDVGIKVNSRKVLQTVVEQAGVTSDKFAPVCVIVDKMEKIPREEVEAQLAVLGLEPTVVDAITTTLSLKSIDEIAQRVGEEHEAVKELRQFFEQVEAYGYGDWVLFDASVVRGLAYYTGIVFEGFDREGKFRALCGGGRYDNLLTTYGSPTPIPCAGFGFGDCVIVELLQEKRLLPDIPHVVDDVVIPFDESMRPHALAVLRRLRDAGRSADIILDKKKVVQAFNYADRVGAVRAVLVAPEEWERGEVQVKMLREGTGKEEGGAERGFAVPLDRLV

From ChEMBL document CHEMBL3988442, “University of Dundee, Small-Polar-MMV Screening Library” (2021).

CoaBC: 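Enzyme assay of CoaBC with a phosphate dye (Biomol Green) read at 650 nm. Target: Coenzyme A biosynthesis protein CoaBC, Mycobacterium tuberculosis (UniProt P9WNZ1). Compounds at 30 µM. Higher reads as stronger inhibition, judged from the few compounds that gave an IC50. Most strong results did not repeat in a second test. About 67,000 compounds were tested under these conditions; 0.06% (about 40) showed 50% or more at least once.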
TcHisRS: 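Enzyme assay of histidyl-tRNA synthetase; the read-out is not stated. Target: Histidine-tRNA ligase, Trypanosoma cruzi CL Brener (UniProt Q4DA54). Compounds at 30 µM. The record gives no direction; compounds that gave an IC50 in retests scored well above the rest, so higher reads as stronger inhibition. Of about 69,000 compounds tested this way, about 31 (0.045%) reached 50% or more in at least one test.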

Values are the deposited “Percent Effect”, in %. How 0% and 100% were set is not recorded. Most values in the screen are low, and negative values occur. The compounds are a random part of those screened. A dash means the value is not listed here; it may have been measured.

structure | CoaBC | TcHisRS
O=C1N(Cc2ccc(F)c(F)c2)CCCC12CCN(C1CCCCC1)C2 (centres undefined) | -20.7 | 16.39
CS(=O)(=O)CCCNC(=O)C1(c2cccc(Cl)c2)CC1 | 3.215 | 11.28
CC(C)C(NC(=O)Cc1ccccc1)C(=O)NCc1ccc(O)nc1 (centres undefined) | 2.913 | 9.901
Cc1nc2cc(C3CCOCC3)nn2c(NCC2COCCO2)c1C (centres undefined) | -4.116 | -1.13
Cc1nc2cc(F)cc(C(=O)N3CCN(CCO)CC3)c2nc1C | 1.984 | 3.448
c1ccc(C2CCCN2Cc2nc(-c3cnccn3)no2)nc1 (centres undefined) | 11.09 | 3.261
CN1CC(=O)N(c2cccc(F)c2)CC12CCNC2 (centres undefined) | 6.941 | 6.077
COc1ccc2c3c1CN(C(C)=O)CC3=CC(C)(C)CO2 | 2.663 | 3.371
Cc1cc2cccc(NC(=O)N3CC[C@@H]4CC[C@H](C3)N4C)c2o1 | 4.251 | 1.031
COc1cccc(N2CC3(CCN(c4ccncn4)C3)CC2=O)c1 (centres undefined) | -3.158 | 3.226
Cc1cc(C(F)(F)F)cc(=O)n1CCCn1cnnn1 | 0.6211 | 5.797
Cn1nc(C2CC2)c2c1NC(=O)CC2c1ccc(CN2CCCCC2)s1 (centres undefined) | 1.852 | 1.571
CCn1c(N)nc2cc(C(=O)N3CCCOCC3)cnc21 | 16.36 | 3.784
Cc1cc(CN2CCN(c3ccc4nncn4n3)CC2)no1 | 6.839 | 7.471
O=C(Cc1ccc2c(c1)OCCCO2)Nc1nnn[nH]1 | 1.211 | 9
CN1CCN(c2ccc(NC(=O)c3cccs3)c(C(F)(F)F)c2)CC1 | 4.577 | 7.182
CCC(CC)(CC)NC(=O)Nc1nnc(-c2ccccn2)s1 | 3.748 | 3.247
CCOc1ncnc2c1CCN(C(=O)c1ccncc1F)CC2 | 1.015 | 6.897
CN(CC1(CO)CCCC1)[C@@H]1c2ccccc2C2(CCNCC2)[C@H]1O | -44 | 1.667
CN(C)CC(=O)N1CC(c2nn(C)c3nccnc23)C1 | 7.108 | 6.383
O=C(c1ccno1)N1CCC2(CC1)C(=O)Nc1ccccc12 | 2.336 | 1.087
Cc1nc(NS(=O)(=O)c2ccc(C)c(Br)c2)no1 | 2.558 | 5.357
NC(=O)c1ccn(COc2ccccc2Cl)n1 | 5.841 | 3.982
c1cnc(Nc2cncc(C3CCCN3)n2)cn1 (centres undefined) | 0.9132 | 3.714
CCn1c(=O)c2sccc2n(CC(=O)Nc2cccc(Cl)c2)c1=O | -5.526 | 0.5917
Cc1ccc(N2CCC(N3C[C@@H](CN(C)C)[C@@H](CO)C3)CC2)cc1 | -45.63 | 8.287
c1ccc(NCc2cn3c(n2)CN(Cc2ccoc2)CC3)nc1 | -22.75 | 12.64
CN(CCCc1nccn1C)C(=O)C1CCN(C(=O)C2CC2)CC1 | 5.646 | 3.415
CC(C)N1CCC(C(=O)N(C)C(C)c2ccon2)CC1 (centres undefined) | -0.2457 | 6.173
CS(=O)(=O)N1CCCC(Cc2cncc(-c3ccccc3C(=O)O)n2)C1 (centres undefined) | 1.211 | 0
CN(C)C(=O)N1CCN(C(=O)C(c2ccccc2F)N(C)C)CC1 (centres undefined) | 5.063 | 0.813
c1cnc(N2CCO[C@H]3CN(Cc4csnn4)C[C@H]32)nc1 | 0 | 1.97
Cc1nc2c(c(C)c1CC(=O)NCc1ccccc1F)c(=O)[nH]n2C | 1.567 | 5.539
CN(C)C(=O)c1ccc(-c2cccc3c2CCNC3)o1 | -31.82 | 8.8
NC(CC1CCCC1)c1ccccc1 (centres undefined) | 0.7444 | 7.514
CC(C(=O)N(Cc1ccc(C#N)cc1)CC(F)(F)F)S(C)(=O)=O (centres undefined) | -0.2066 | 9.524
CCN1CCCC1CNCc1cc2cc(OC)ccc2[nH]c1=O (centres undefined) | -4.513 | 2.308
CN(C(=O)c1cc(F)ccc1F)[C@@H]1CC[C@@H](O)[C@@H]1O | 6.413 | 9.231
Cn1c(CN2CCCCC2)cc(=O)c(O)c1CN1CCCCC1 | -1.937 | 2
Cc1nn(Cc2ccc(C(=O)NC3CCS(=O)(=O)C3)cc2)c(C)c1Br (centres undefined) | 0.3444 | 5.263
CSCCC(O)C(=O)N1CCN(Cc2cccc(Cl)c2)CC1 (centres undefined) | 4.968 | 1.681
c1cc(N2CCCC2c2cnccn2)ncn1 (centres undefined) | -0.6196 | 5.993
CCCc1nncn1-c1cc(OC)ccc1OC | 5.04 | -1.087
CNCc1cc(F)ccc1Oc1ccc(Cl)cc1 | -1.104 | 6.936
CC(C)CC(NC(=O)c1ccco1)c1nnc2ccccn12 (centres undefined) | -6.747 | 3.96
CC(C)CNC(=O)c1ccc2c(=O)n(-c3ccccc3)cnc2c1 | -7.592 | 1.064
O=C(c1ccccn1)N1CCc2ncc(Cn3cccn3)n2CC1 | 2.096 | 9.524
CC(C)N1CC[C@H]2[C@H](C[C@@H](Cn3cncn3)N2c2nccs2)C1 | 6.585 | 2.222
N#CCCSc1nnc(Cc2ccccc2F)o1 | 4.713 | 2.128
CCN1CCOCC12CCN(C(=O)C1CCC1)CC2 | -0.2353 | 0.4808
Oc1cc(CC2COCCN(CC3(O)CCOCC3)C2)ncn1 (centres undefined) | -1.865 | 26.69
Cc1csc(N2CCCN(C(=O)Cc3ccc(C)s3)CC2)n1 | 3.143 | 11.92
O=C1CCC2(CCCN(C(=O)c3ccc[nH]3)C2)CN1Cc1cccnc1 (centres undefined) | -4.121 | 7.447
CC(=O)Cn1nc(-c2ccccc2F)ccc1=O | -0.2421 | 5
CN(C)C(=O)[C@H]1CC[C@@H]2[C@@H](CCN2Cc2ccccn2)O1 | - | 2.454
COc1ccccc1CNC(Cc1cccs1)c1nc(C)cs1 (centres undefined) | -0.7299 | 2.985
CN(CC(=O)N1CCCC1c1cnn(C)c1)c1ccc(Cl)cn1 (centres undefined) | 2.17 | 5.303
CS(=O)(=O)NCc1nnc2n1CCN(Cc1ccccn1)C2 | 3.25 | 3.922
COc1ccc(SC(C)C(=O)N2CCC(NC(=O)C3CC3)CC2)cc1 (centres undefined) | -1.935 | 5.419
O=C([C@H]1CC[C@@H]2[C@@H](CCN2Cc2nccs2)O1)N1CCCCO1 | 6.84 | 5.882
CNC(=O)NC(C)c1nc(-c2ccccc2)c[nH]1 (centres undefined) | 0.4673 | 3.982
O=C(CN1C=Nc2ccccc2S1(=O)=O)NCCCc1ccccc1 | 0.6519 | 0.578
Cc1noc(CN(Cc2ccc3c(c2)OCO3)C2CCCC2)n1 | 2.966 | -16.54
CC(=O)N1CCO[C@@H]2CN(Cc3ccccc3F)C[C@@H]2C1 | 0.9901 | 4.42
CC(NC(=O)NCC1(c2ccc(F)cc2)CC1)c1nncn1C (centres undefined) | 7.024 | 2.89
COC(=O)C1CCN(C(=O)c2nnc3ccc(Cl)cc3n2)CC1 | 2.57 | 3.097
O=C(CC[C@@H]1CCCN2CCCC[C@H]12)NCCc1nc(O)cc(O)n1 | 0.6173 | 2.618
O=C1NC2(CCN(Cc3cccnc3)CC2)CC1c1cccnc1 (centres undefined) | 8.824 | 5.785
CC1CN(CC(=O)Nc2cccnc2)CCN1c1nccs1 (centres undefined) | 5.396 | -1.916
O=C(C1CCCO1)N1CCC(Cn2cc(C3CCCC3)nn2)CC1 (centres undefined) | -0.6143 | 8.333
O=C1NCC2(CCCN(C(=O)Nc3ccc4occc4c3)CC2)O1 (centres undefined) | 0.5115 | 6.061
CCc1noc(CNC2CCCN(Cc3noc(C4CC4)n3)C2)n1 (centres undefined) | 6.266 | 4.956
CN1CCCC1c1cncc(C(=O)NCC2CC2)n1 (centres undefined) | 0.6135 | 3.101